Results are given in words; binding and its absence hold for the method and conditions named. Some entries that bind do so weakly or less than the wild type.
Tests used:
[1] = target: native human β2M on primary cells (human PBMC; cells of hFcRn and hβ2M transgenic mice) (human) (UniProt P61769); assay: flow cytometry, loss of anti-β2M staining after preincubation with AFP
[2] = target: human β2-microglobulin (human) (UniProt P61769); assay: SPR, 100 RU hβ2M amine-coupled, hAFP injected at 2000-15.6 nM, pH 6

Amino acid sequences for entries named in this document (tags omitted). A change or cut given only in a name is not applied to a line headed by its entry.
UniProt P61769: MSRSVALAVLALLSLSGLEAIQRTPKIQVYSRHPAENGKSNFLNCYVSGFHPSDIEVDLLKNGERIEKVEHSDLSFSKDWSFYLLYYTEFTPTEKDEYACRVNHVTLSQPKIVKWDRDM

binding [1]: binds | binding [2]: binds
B1: human alpha-fetoprotein (AFP) (ligand)
chain: RTLHRNEYGIASILDSYQCTAEISLADLATIFFAQFVQEATYKEVSKMVKDALTAIEKPTGDEQSSGCLENQLPAFLEELCHEKEILEKYGHSDCCSQSEEGRHNCFLAHKKPTPASIPLFQVPEPVTSCEAYEEDRETFMNKFIYEIARRHPFLYAPTILLWAARYDKIIPSCCKAENAVECFQTKAATVTKELRESSLLNQHACAVMKNFGTRTFQAITVTKLSQKFTKVNFTEIQKLVLDVAHVHEHCCRGDVLDCLQDGEKIMSYICSQQDTLSNKITECCKLTTLERGQCIIHAENDEKPEGLSPNLNRFLGDRDFNQFSSGEKNIFLASFVHEYSRRHPQLAVSVILRVAKGYQELLEKCFQTENPLECQDKGEEELQKYIQESQALAKRSCGLFQKLGEYYLQNAFLVAYTKKAPQLTSSELMAITRKMAATAATCCQLSEDKLLACGEGAADIIIGHLCIRHEMTPVNPGVGQCCTSSYANRRPCFSSLVVDETYVPPAFSDDKFIFHKDLCQAQGVALQTMKQEFLINLVKQKPQITEEQLEAVIADFSGLLEKCCQGQEQEVCFAEEGQKLISKTRAALGV

From patent US20190201496A1
